Measurements published in patent US20250270321A1, “METHODS OF TREATING LUNG CANCER BY ADMINISTERING A PD-1 INHIBITOR” (priority 2021, published 2025).

System: advanced NSCLC
Assay: EMPOWER-Lung 1 hospitalization and supportive care medication (SCM) utilization, safety population
[1] = total duration of SCM type/treatment-emergent period

## cemiplimab
SCM utilization ratio
  Difference in ratio (CHEMO − CEMI): Anti-anemic: 211.79 in 1000 days
  Difference in ratio (CHEMO − CEMI): Antibacterial for systemic use: 16.37 in 1000 days
  Difference in ratio (CHEMO − CEMI): Antidiarrheal: −6.65 in 1000 days
  Difference in ratio (CHEMO − CEMI): Antimycotic for systemic use: 1.49 in 1000 days
  Difference in ratio (CHEMO − CEMI): Antiviral for systemic use: −0.33 in 1000 days
  Difference in ratio (CHEMO − CEMI): Appetite stimulant: 20.49 in 1000 days
  Difference in ratio (CHEMO − CEMI): Bone disease treatment: 15.75 in 1000 days
  Difference in ratio (CHEMO − CEMI): Corticosteroid for systemic use: 145.06 in 1000 days
  Difference in ratio (CHEMO − CEMI): Immunostimulant: 14.60 in 1000 days
  Difference in ratio (CHEMO − CEMI): Opiate: 79.04 in 1000 days
  Difference in ratio (CHEMO − CEMI): PRBC transfusion: 0.37 in 1000 days
  Difference in ratio (CHEMO − CEMI): Platelet transfusion: 0.04 in 1000 days
In vivo
  Difference in ratio (CHEMO − CEMI): Antiemetic/antinauseant: 202.90 in 1000 days
  SCM utilization ratio: Antiemetic/antinauseant: 2.52 in 1000 days
[1]
  SCM utilization ratio: Anti-anemic: 52.49 in 1000 days
  SCM utilization ratio: Antibacterial for systemic use: 22.34 in 1000 days
  SCM utilization ratio: Antidiarrheal: 10.57 in 1000 days
  SCM utilization ratio: Antimycotic for systemic use: 0.87 in 1000 days
  SCM utilization ratio: Antiviral for systemic use: 1.16 in 1000 days
  SCM utilization ratio: Appetite stimulant: 5.13 in 1000 days
  SCM utilization ratio: Bone disease treatment: 3.07 in 1000 days
  SCM utilization ratio: Corticosteroid for systemic use: 26.71 in 1000 days
  SCM utilization ratio: Immunostimulant: 0.21 in 1000 days
  SCM utilization ratio: Opiate: 70.90 in 1000 days
  SCM utilization ratio: PRBC transfusion: 0.07 in 1000 days
  SCM utilization ratio: Platelet transfusion: 0.01 in 1000 days
